Data taken from the supplement of paper PMC12764529.
± gives the half width of the 95% confidence interval. For many entries, trypsin and chymotrypsin gave values far apart.

How the values were obtained:
[1] = folding stability dG unfold from trypsin proteolysis; higher = more stable
Procedure: (§1)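 Folding stability of de novo designed mini-proteins (<80 aa, no Cys; designed by TrROS, TrMRF, ProteinMPNN and the joint model) was measured by cDNA display proteolysis with trypsin and chymotrypsin. Each protease was used at 11 concentrations in a threefold dilution series plus a no-protease condition. K50 was inferred by Bayesian fitting of sequencing counts, and dG unfold was derived against a sequence-predicted unfolded-state K50 (Tsuboyama et al. method). Sequences shown include variable-length N-terminal GS-type padding (SAGGSAGG...) inside a display construct carrying a PA tag. Rows were kept only if the AF2 dimer inter-PAE was >15, to exclude likely homo-oligomers.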

[2] = folding stability dG unfold from chymotrypsin proteolysis; higher = more stable
Procedure: as §1

[3] = folding stability dG unfold (combined trypsin and chymotrypsin); higher = more stable
Procedure: as §1

Sequence: SAGGSAGGSAELELRLEVEVLVRNEDGSLSRRRFELTLRLEFKLPPLSEEERKRLLEELLKSAGGSAGGSAG [r3_252_TrROS_Hall]
- folding stability dG unfold [1]: 3.49 ± 0.19 kcal/mol
- folding stability dG unfold [2]: 5.81 ± 0.23 kcal/mol
- folding stability dG unfold [3]: 5.36 ± 0.25 kcal/mol

Sequence: SAGGSAGGSAGGRIHVPNGKTKNFDSPEDFEEELKGDPVDDVSIHDPEGGKEKEIPVKPSAGGSAGGSAGGS [r10_1191_TrROS]
- folding stability dG unfold [1]: -0.554 ± 0.093 kcal/mol
- folding stability dG unfold [2]: 1.48 ± 0.025 kcal/mol
- folding stability dG unfold [3]: 1.01 ± 0.06 kcal/mol

Sequence: SAGGSAGGSAGGGRVQVELKARLLVRDPETHELHELELTLRLELPLPPAPPVVTVYRRPSAGGSAGGSAGGS [r10_815_TrROS_Hall]
- folding stability dG unfold [1]: 0.713 ± 0.25 kcal/mol
- folding stability dG unfold [2]: 2.78 ± 0.17 kcal/mol
- folding stability dG unfold [3]: 2.05 ± 0.22 kcal/mol

Sequence: SMIKLEIVIKGLSEEEVEELAEELARKLAEELGLKIEVKVERFKRKDGKEVYVRIEVTIEVRDEDGKLLPSA [r9_21_TrROS_Hall]
- folding stability dG unfold [1]: 2.58 ± 0.11 kcal/mol
- folding stability dG unfold [2]: 4.96 ± 0.12 kcal/mol
- folding stability dG unfold [3]: 4.56 ± 0.12 kcal/mol

Sequence: SAGIKELAEKLAEELKKKGYEVEVEVDEETGTITVTVKKDGELYEIEIKIDKKTNKVEVKIKPLPKKKSAGG [r19_2_TrROS_Hall]
- folding stability dG unfold [1]: 0.197 ± 0.12 kcal/mol
- folding stability dG unfold [2]: 2.31 ± 0.12 kcal/mol
- folding stability dG unfold [3]: 1.88 ± 0.25 kcal/mol

Sequence: SAGGSAGGSAGGMTLRLKLRLTFTNEDGSTSELELELELEFEPEPVLVRTKDGRTRLLDSAGGSAGGSAGGS [r10_330_TrROS_Hall]
- folding stability dG unfold [1]: 1.1 ± 0.13 kcal/mol
- folding stability dG unfold [2]: 4.24 ± 0.092 kcal/mol
- folding stability dG unfold [3]: 3.63 ± 0.18 kcal/mol

Sequence: SATLADYLKKNGYRIKIDVEIREINPMYTPDGGNHMMFQISVKIEIEPPPPPPPPPDPEDMRDPDGKPRSAG [r14_569_TrROS]
- folding stability dG unfold [1]: 1.65 ± 0.12 kcal/mol
- folding stability dG unfold [2]: 3.74 ± 0.098 kcal/mol
- folding stability dG unfold [3]: 3.35 ± 0.26 kcal/mol

Sequence: SAKVRIVVTDDMVFVRTKDGKVLMFRTREEAEAAAKALFPEDVEIIVLDPSSPEVRKLLEELERLLEGKSAG [r14_235_TrROS_Hall]
- folding stability dG unfold [1]: 2.19 ± 0.04 kcal/mol
- folding stability dG unfold [2]: 4.73 ± 0.086 kcal/mol
- folding stability dG unfold [3]: 4.24 ± 0.11 kcal/mol

Sequence: SKKVEKKVTLKIEIELPDGYKVEIEVKNGKIEIKIEPVKFYNKDGKEFKTKEEAEKAAKKEGIEITKEDLSA [r9_660_TrROS_Hall]
- folding stability dG unfold [1]: 0.225 ± 0.26 kcal/mol
- folding stability dG unfold [2]: 3.2 ± 0.077 kcal/mol
- folding stability dG unfold [3]: 2.67 ± 0.24 kcal/mol

Sequence: SAKKIPAKDIKIKIKIKLPNGEIVEAEIKEVKFDKKTKKLYFYVEIRIVDKKTKKVYTFKAKIIEIEKVSAG [r14_825_TrROS_Hall]
- folding stability dG unfold [1]: 1.77 ± 0.086 kcal/mol
- folding stability dG unfold [2]: 3.87 ± 0.075 kcal/mol
- folding stability dG unfold [3]: 3.35 ± 0.42 kcal/mol

Sequence: SPITADQIKDILRELFPNWEIEDIEVNPGNGEYEIKFPDGWKVEVHVPPDGRIHIRIRYPGKERTIQIPVSA [r9_304_TrROS]
- folding stability dG unfold [1]: 1.34 ± 0.035 kcal/mol
- folding stability dG unfold [2]: 3.87 ± 0.14 kcal/mol
- folding stability dG unfold [3]: 3.27 ± 0.23 kcal/mol

Sequence: SAGGSAGGSAGEMIDVKIVVKTEDGPVTAVIDVKPDELDEVLKEAEEIPDFEVVDADLGDSAGGSAGGSAGG [r11_692_TrMRF]
- folding stability dG unfold [1]: -0.535 ± 0.24 kcal/mol
- folding stability dG unfold [2]: 1.48 ± 0.1 kcal/mol
- folding stability dG unfold [3]: 1.1 ± 0.11 kcal/mol

Sequence: SAGGKKKTIKITSVEKVKNKDGSIYYKVKIKYEDGTEKTFVFKSLEEAKKALEALPNVKKVEIEPLPSAGGS [r16_757_TrROS_Hall]
- folding stability dG unfold [1]: 1.94 ± 0.071 kcal/mol
- folding stability dG unfold [2]: 4.4 ± 0.064 kcal/mol
- folding stability dG unfold [3]: 3.95 ± 0.17 kcal/mol

Sequence: SAGGSAGGSMTIRIENEDGEEVIEIEVPPGAKAEDLEIEIGGKKAKIVEVDEETGRVTIKIEPSAGGSAGGS [r12_675_TrROS_Hall]
- folding stability dG unfold [1]: 0.258 ± 0.17 kcal/mol
- folding stability dG unfold [2]: 2.52 ± 0.13 kcal/mol
- folding stability dG unfold [3]: 1.68 ± 0.43 kcal/mol

Sequence: SAGGSAMTIEELKKLFPDKPIVKILDLKPVGDSYVLTVYYPKTGKVEKFVFTSLPPEQIKKIKEDNSAGGSA [r15_830_TrMRF]
- folding stability dG unfold [1]: 1.59 ± 0.062 kcal/mol
- folding stability dG unfold [2]: 4.14 ± 0.087 kcal/mol
- folding stability dG unfold [3]: 3.56 ± 0.11 kcal/mol

Sequence: MKKVLVFNLGNDPALAKEILEKLKEEGYEVEVVVFTTEEEKKKAEELAKKTEEVIVIERPPEPPKYPENRVS [r1_497_JUSTAS]
- folding stability dG unfold [1]: -0.222 ± 0.16 kcal/mol
- folding stability dG unfold [2]: 2.1 ± 0.086 kcal/mol
- folding stability dG unfold [3]: 1.64 ± 0.11 kcal/mol

Sequence: SAGGSAGGSANIKIEIYKHPDGWWIVKIEITVMRMVYDPEDGKMKMEMRTHEFTFIIPPGEISAGGSAGGSA [r18_34_TrROS]
- folding stability dG unfold [1]: 3.7 ± 0.22 kcal/mol
- folding stability dG unfold [2]: 6.02 ± 0.21 kcal/mol
- folding stability dG unfold [3]: 5.94 ± 0.79 kcal/mol

Sequence: SAGGSAGGLEIEWDIERHPNGWLTVGWRVWGPNGRSREITLTIQVVPPMPANDPEEMAEANGIDSAGGSAGG [r6_293_TrROS]
- folding stability dG unfold [1]: 2.48 ± 0.083 kcal/mol
- folding stability dG unfold [2]: 4.73 ± 0.13 kcal/mol
- folding stability dG unfold [3]: 3.93 ± 0.23 kcal/mol

Sequence: SAMVTVRIESYDPERGVLRLVIERDEAHPDIPVPPALTDAIRDAFAALGLEVRVTRHPDGTVTIEIPVPSAG [r14_865_TrMRF]
- folding stability dG unfold [1]: 3.24 ± 0.081 kcal/mol
- folding stability dG unfold [2]: 5.75 ± 0.12 kcal/mol
- folding stability dG unfold [3]: 5.75 ± 0.24 kcal/mol

Sequence: SATVTVTVTATVRERRLELDEDGALRAETRTETVTATATFTLRPPPPPPAPPELVRDPATGEWVPREERSAG [r14_122_TrROS_Hall]
- folding stability dG unfold [1]: 1.51 ± 0.075 kcal/mol
- folding stability dG unfold [2]: 3.96 ± 0.14 kcal/mol
- folding stability dG unfold [3]: 3.13 ± 0.47 kcal/mol

Sequence: SAGGSAGGSAPWDIVPVTITFPIKIKPSPNGKPKEKEIPIKIEMWVIRDPNGNLFVGINISISAGGSAGGSA [r18_284_TrROS]
- folding stability dG unfold [1]: 3.03 ± 0.21 kcal/mol
- folding stability dG unfold [2]: 5.12 ± 0.51 kcal/mol
- folding stability dG unfold [3]: 5.01 ± 0.38 kcal/mol

Sequence: SAGARITSVELEEDGSLRLTVELGGLRVTLTFRDGRIESVSVEPLPPPPPPPRVEVERDPETGEWKEKSAGG [r19_254_TrROS_Hall]
- folding stability dG unfold [1]: 1.76 ± 0.18 kcal/mol
- folding stability dG unfold [2]: 3.79 ± 0.13 kcal/mol
- folding stability dG unfold [3]: 3.1 ± 0.34 kcal/mol

Sequence: SAGGSAGGSEPERTLTLEVRLEVERLPDGTLRVRAEVTLPNGERLEIEATLRPDGRLELRIRPSAGGSAGGS [r12_317_TrROS_Hall]
- folding stability dG unfold [1]: 1.05 ± 0.057 kcal/mol
- folding stability dG unfold [2]: 3.96 ± 0.13 kcal/mol
- folding stability dG unfold [3]: 3.61 ± 0.19 kcal/mol

Sequence: SAGIEEALEAVAAELGLEITEIEVKKLPDGSLVAKFKFRKDDEEYEVTATYNPATGTLTIDITPVPVKRSAG [r14_784_JUSTAS]
- folding stability dG unfold [1]: 0.94 ± 0.073 kcal/mol
- folding stability dG unfold [2]: 4.41 ± 0.088 kcal/mol
- folding stability dG unfold [3]: 3.91 ± 0.1 kcal/mol

Sequence: SAGGSMKIEKKEDGTLVITLPAEDEEKIEELKKLLEELGFEVVKVEKNENGEVTITVKLTPEAIKKSAGGSA [r2_224_TrROS_Hall]
- folding stability dG unfold [1]: 0.841 ± 0.17 kcal/mol
- folding stability dG unfold [2]: 2.95 ± 0.27 kcal/mol
- folding stability dG unfold [3]: 2.52 ± 0.45 kcal/mol

Sequence: SAGGSIDIHLGDAENVEAEVFPDGTVVVRVRFAVPPSTPRTLTLRLRLVPPPVPPLVLPDDPLAKGSAGGSA [r2_368_TrMRF]
- folding stability dG unfold [1]: 2.49 ± 0.064 kcal/mol
- folding stability dG unfold [2]: 4.84 ± 0.12 kcal/mol
- folding stability dG unfold [3]: 3.92 ± 0.16 kcal/mol

Sequence: SAGGMFTVTTPDGVTRAVERKVTITLKDVNGVEKTITIDLTDATEEEIKEIAEEIEKKGYELVSITIESAGG [r13_227_JUSTAS]
- folding stability dG unfold [1]: 1.5 ± 0.038 kcal/mol
- folding stability dG unfold [2]: -0.907 ± 0.5 kcal/mol
- folding stability dG unfold [3]: 0.651 ± 0.2 kcal/mol

Sequence: SAGMYVVTITFTNGEVHVVEFPPGLSEEELEALAEEVAERIEKELGLPDNPVSKIEITPVDDDPARRRASAG [r5_377_JUSTAS]
- folding stability dG unfold [1]: 0.222 ± 0.043 kcal/mol
- folding stability dG unfold [2]: 3.36 ± 0.038 kcal/mol
- folding stability dG unfold [3]: 2.88 ± 0.067 kcal/mol

Sequence: SAGGSAGGSMLRIRVYVKDTGEVVELEFDSLEEALAALPPGAEVERIEVVELPPVRTEEQREASAGGSAGGS [r12_851_TrROS_Hall]
- folding stability dG unfold [1]: 1.88 ± 0.09 kcal/mol
- folding stability dG unfold [2]: 3.93 ± 0.1 kcal/mol
- folding stability dG unfold [3]: 3.57 ± 0.068 kcal/mol

Sequence: SAGGSAGGSAGKVYRFDSLEEALKALKEKGYEIVSIEVVEVDGKKYVKVKIEIKPKKEKKSAGGSAGGSAGG [r11_141_TrROS_Hall]
- folding stability dG unfold [1]: 1.03 ± 0.074 kcal/mol
- folding stability dG unfold [2]: 3.72 ± 0.22 kcal/mol
- folding stability dG unfold [3]: 3.14 ± 0.23 kcal/mol

Sequence: SAGGSAGGSAGGSAADPGQWKVIPIQISFEMKYTRMDPDGKPEEHTMEFTFNIPFVVPDSAGGSAGGSAGGS [r4_418_TrROS]
- folding stability dG unfold [1]: 2.9 ± 0.1 kcal/mol
- folding stability dG unfold [2]: 5 ± 0.14 kcal/mol
- folding stability dG unfold [3]: 4.32 ± 0.33 kcal/mol
